Source: the supplement of paper PMC5949888
Most values lie at the floor of the assay. Slopes are relative: functional sequences can read slightly below zero.

System: Saccharomyces cerevisiae PS128 hsf1 delta, HSF1(1-493) fusion
Assay: growth estimate (transactivation domain function in HSF1 fusion, heat-shock survival) (a.u. (slope of normalised read count over time)); higher = stronger growth at 37°C, i.e. more transactivation activity
Details: library: random library

Substance	growth estimate
TWNSNHGLESLYTVQVVARP	< -0.25
AVPAQYME	< -0.25
RRLNGPHTVLRRAKGRLLLA	< -0.25
GTLCSPE	< -0.25
GTTEEGLCSPYSTSVD	< -0.25
SQILK	< -0.25
LHGILVLQVTEP	< -0.25
FSKQFVQGVIIRMERAYALW	< -0.25
HEYLLQGADTRS	< -0.25
RNINY	< -0.25
RQFIGLDAVGRFQA	< -0.25
RRPLRFPPDGMSAS	< -0.25
DLRIDINFLAFCVPSIYGFD	-0.243
LSTPLLAGQVLGQTGGKRIY	< -0.25
PSMPLSGAWRGRWTAAGKSF	< -0.25
GGGNWQHVRLVDNGVDGAGP	< -0.25
GTFK	< -0.25
FNTEFSGKNKWA	< -0.25
MFERGHASNIHAPVPWGLRD	< -0.25
ELWSGCGSRQA	< -0.25
SYYIQIFN	< -0.25
HQLLIGRRRGWSSYSNVSTS	< -0.25
LLVCKSDLLPCIQVLKLSIV	< -0.25
LLWRRVVLRWGRCSQQKART	< -0.25

Substance	growth estimate
AAVGDLGEYHGSSYAYADLP	< -0.25
GLTYDLSPAAPRLLQRIRTT	< -0.25
CPRLELWAARGLEPPVPLRL	< -0.25
TLKE	< -0.25
KHNSM	< -0.25
SRRDHS	< -0.25
LSQD	< -0.25
ATKREKGKDVSKESACHDYM	< -0.25
SGLARTVFPAITTRTYAPPP	< -0.25
LFHRSPCCPTALCAVEYDW	< -0.25
PYFEVDNWHLLSQTLGKGAG	-0.245
SVLCTRLRCLGSMLSRL	< -0.25
DTITFESSAGSLQ	< -0.25
TLEKSLNGLQR	< -0.25
PADS	< -0.25
EKFVVSIAYK	< -0.25
HVKALSKAMAAMH	< -0.25
RHTFPEAYAFEFSAQLGRTV	< -0.25
FLQSGTL	< -0.25
SKRGMILNLLQGASRGLQSA	< -0.25
HRVVGEVGSFCL	< -0.25
RVLPVKGYRE	-0.231
SRRICVWGGPCVYGVDGGRV	< -0.25
SMFPGRCCTSFDDNSPQHRH	< -0.25

Substance	growth estimate
GQLFDLRRPPRGQMAP	< -0.25
LASSPLGGLPGPTPHEDCHR	-0.245
SWN	< -0.25
RISLREL	< -0.25
KVGSLCLVPMATEGHPDNAL	< -0.25
NLGGRRRKSSCEIPVGFVYA	< -0.25
SGVRAMRRPRVMGGENNGGY	< -0.25
STVCVHFCFERL	< -0.25
MIRYSERLHGRAQSRGSY	< -0.25
VAVRWGSRGTVFPR	< -0.25
ARRSTVGRFRSIQSHPGAMH	< -0.25
VYVYNGASDLGEI	< -0.25
RRAAMVVTCRASVKPGLVSS	< -0.25
VRTYTVSS	< -0.25
WSTWIIASSRNGQVYHVIIE	< -0.25
VHASAPWGSTEEDRTTANGL	< -0.25
MRRLAHEVARRMNRSVAQLR	< -0.25
PALPAQ	< -0.25
CNLWAMFMCTEFNPCDARPV	< -0.25
RSQGDEPYCSCTRTLP	< -0.25
RCWGQDMSLLSISVHVWVYT	< -0.25
GQMWYSIREPTFL	< -0.25
HVHPLA	< -0.25
VFIKGTWS	-0.25

Substance	growth estimate
RCQHIKEGRMGRLIRESDMF	< -0.25
HKVCDTHVDLWATHSANRSD	< -0.25
GRLALLLLVDMTGPDCTVPP	< -0.25
TGVYLQLVSGDLVAGSLDGS	< -0.25
WWHYPLFHRYVEQGNLSNLN	< -0.25
SGGLRFGPLMSDLFTAKKRQ	< -0.25
AFQRVLHVERIRIKMHHAP	< -0.25
IMQVLPFGGSYVQESSETRR	< -0.25
GLGHWTLWAVGDRLCRC	< -0.25
ARLKVERSGFPC	< -0.25
TEGAPRTTCLEDLVSTSTHL	< -0.25
DCA	< -0.25
SQVIDKPKGLRKPCYHSYHT	< -0.25
TPVLFSVGLQSRQVAGRESY	< -0.25
SGAIRHELRQTGTV	< -0.25
LPTFRPRLTRRDGSGPKIKT	< -0.25
MGKAQILVKSVSMCN	< -0.25
NGWGAACSATDSVSAVYLYS	< -0.25
TVRVDHDHSKEKRGISLSDR	< -0.25
SIKGLPANILWLLGWKTLGV	< -0.25
IRFWDSAIEKNTTTVSWGRT	< -0.25
MESLASPEGYMRR	< -0.25
FGYLVAFWPASRRTKLRRAA	< -0.25
RPQFGQGRSVQLSPSIVSDR	< -0.25

Substance	growth estimate
LGTLWIRLLQFGDLG	< -0.25
AISHAL	< -0.25
NIYADGLPCTKRLDPRQWLR	< -0.25
LTDRKLSSGRLRSTSPTADI	< -0.25
GKAVSFIRIATTLGTGTSSR	< -0.25
AGGGIPLQRLSSTRLDVVCV	< -0.25
KHNWVLG	< -0.25
KNQNVCQLHGIAYARRTPPQ	< -0.25
LAQSCSVC	< -0.25
GSLTFEGLGYIRIGFILEHN	< -0.25
PESYHDNNGNHAAPS	< -0.25
DNGLLKVMKQRYDGIIKKAR	< -0.25
FTKRAPAMVVTPGGPP	< -0.25
LQLGRLC	< -0.25
SVLPARKSQLRMD	< -0.25
CKIGPRGWHIRLVRISSSFV	< -0.25
RFELLSP	< -0.25
VHRGIVMDSTRQGKCRGAVG	< -0.25
GPSVFRCGLDDCHTFYEGTP	< -0.25
CVKVEPGKWTKPADSERKVG	< -0.25
ALVVVGQVLILGNTAHRAAG	< -0.25
RRLPALMAIPFTSAEAGPVS	< -0.25
RCAGMILKCS	< -0.25
LWVHGTYCTALRLWAQPSCG	< -0.25

Five records drawn at random from those above, as already listed:
Substance	growth estimate
VHRGIVMDSTRQGKCRGAVG	< -0.25
KNQNVCQLHGIAYARRTPPQ	< -0.25
RCAGMILKCS	< -0.25
GKAVSFIRIATTLGTGTSSR	< -0.25
CKIGPRGWHIRLVRISSSFV	< -0.25

Later entries

Substance	growth estimate
CLSIEPGGKYTYTGLGPVRG	< -0.25
HWTYGGVNTRPVRMSGETR	< -0.25
WNVTRAS	< -0.25
QVRVEETTKFKECKWPGFGA	< -0.25
KLGC	< -0.25
WGTRDMCCQCPVLG	< -0.25
TSDGAGD	0.141
RCNSLLKGLCPSQRTGRLSL	< -0.25
RDRPWLGSPLNPNRQEDY	< -0.25
TRRRFTYAEGARLRITITGI	< -0.25
QDLPGDSNRSEVSY	< -0.25
FYRGQYLPYLHRGGSRIRVL	< -0.25
MYISGDG	< -0.25
LGRNSIW	0.058
LLRWSVVEYL	< -0.25
LGGVFGMDFLLGLLI	< -0.25
TDRCCLSRVAEFCRMVASIR	< -0.25
VAVQSTRHPAGAD	< -0.25
IGIFE	< -0.25
EVNALYGHETPTLGLADLEP	< -0.25
STEVRTRALDNRY	< -0.25
GSGHKALQGVFQRRGGNGSR	< -0.25
